Measured values as given in PMC4674687.
These are yes or no findings as the source states them, for the method shown. Each block holds one binder with its values, some of them ahead of it.

Tests used:
[1] = biological target: T1, full-length human Sestrin2 (hSesn2), recombinant from E. coli (human), P58004; test: SEC-MALS; 60 μM hSesn2; WTC-050S5 SEC column; 30 mM HEPES (pH 8.0), 100 mM NaCl, 1 mM TCEP; both purified; settings: remark: other sources report otherwise
T1 chain: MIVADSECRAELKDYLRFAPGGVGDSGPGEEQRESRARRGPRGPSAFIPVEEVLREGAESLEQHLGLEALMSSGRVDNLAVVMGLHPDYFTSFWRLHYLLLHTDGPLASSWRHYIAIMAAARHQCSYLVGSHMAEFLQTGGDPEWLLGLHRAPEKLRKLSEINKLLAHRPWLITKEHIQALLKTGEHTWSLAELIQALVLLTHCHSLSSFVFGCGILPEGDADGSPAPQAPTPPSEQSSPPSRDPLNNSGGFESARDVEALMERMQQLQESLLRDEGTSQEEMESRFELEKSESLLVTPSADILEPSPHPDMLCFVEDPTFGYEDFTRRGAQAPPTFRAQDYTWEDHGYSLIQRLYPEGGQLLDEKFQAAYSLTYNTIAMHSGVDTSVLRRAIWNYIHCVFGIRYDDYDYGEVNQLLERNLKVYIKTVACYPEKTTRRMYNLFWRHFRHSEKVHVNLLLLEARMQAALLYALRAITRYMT

[2] = biological target: T2, selenomethionine-substituted full-length human Sestrin2 (hSesn2-SeMet) (human), P58004; test: crystal structure; SeMet-substituted hSesn2, SAD, 3.5 Å, space group I23, five copies per asymmetric unit; 0.1 M MES (pH 6.5), 1.15 M sodium malonate; both purified; settings: remark: other sources report otherwise
T2 chain: T1 chain

- binding [1]: no binding (tested: 60 μM)
B1: full-length human Sestrin2 (hSesn2), recombinant from E. coli, P58004 1-480 (protein)
chain: T1 chain

- binding [2]: no binding
B2: selenomethionine-substituted full-length human Sestrin2 (hSesn2-SeMet), P58004 1-480 (protein)
chain: T1 chain
modifications: here or on the partner: selenomethionine in place of methionine (12 selenium sites per monomer); selenomethionine in place of methionine (12 selenium sites per monomer)
